# Experimental data published in PubChem BioAssay AID1347426 (Functional Genomics Laboratory (NCATS/FGL), 2020).
# The campaign covered roughly 31,000 sequences. About 1,400 (4.5%) were called active.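 The calls were made as follows: active = median seed-adjusted z-score above 1 or below -1; inactive = the rest.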 The list shows a part of the results.
# Assay: Novel Modifiers of Survival Motor Neuron (SMN) Protein: Gene Identification via Genome-wide siRNA Screen;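 also: luminescence tracks full-length SMN protein made from the SMN2 reporter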
# Details: HEK293T SMN2-luciferase reporter, siRNA knockdown, 72 h; actives lie on both sides
# Summary of the method: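 Steps: spot 1 pmol siRNA, add Lipofectamine RNAiMax in serum-free DMEM, seed HEK293T SMN2–luciferase reporter cells; incubate 72 h at 37 °C; add ONE-Glo; normalize luminescence to control siRNA, log10, MAD. Candidates: |MAD| > 1.0.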
row,Sequence,median seed-adjusted z-score
1,GGCUGUACAUCGGCAUCAATT against ABCD4,inactive: -0.114
2,CAGUGAUGGUGAUUCAGAUTT against PHF10,inactive: -0.199
3,CUCUAAUGUCUGAUAUUCATT against TDRD6,inactive: 0
4,CAGUGUAAUUAGGCAACUATT against MYO3A,inactive: 0.0776
5,CACUGUUCAUUGUGACUAUTT against TAF1L,inactive: 0.289
6,CGAUGUCAGUGACACUUGATT against INPP4B,inactive: 0.0722
7,GUGUGAGGGUUGAACUCAATT against EGLN1,active: 2.05
8,AAAAUUAUCUAAGCAGUAUTT against TTC7A,inactive: -0.303
9,AGUCAGGUACGAAGAUGAATT against KRT75,inactive: 0.0773
10,GGAGCACAGUCGGAUCAAATT against ALDH4A1,inactive: 0.0362
11,CGACCUUGAUUGAGAUCUUTT against KCNJ15,inactive: 0.0332
12,GCUUCCUCUUGGACCUCAATT against SLC12A8,inactive: 0.113
13,GAGCAGAAAUUAUUCGUUATT against PGDS,inactive: 0.02
14,GGUGAUCAUUCCAAGAAGATT against ISL2,inactive: 0.392
15,GCUCUACGCAAGGAGAUCATT against BATF,inactive: -0.0501
16,CCACUGAUCCUUCCCGAUATT against ENO2,inactive: 0.418
17,UCUUAGAUGUCAAGCUGAATT against RNF7,active: -1.18
18,GACCUGACCUGAAGACGAATT against GALNT11,inactive: -0.259
19,GCCCUUCCCUCUCAUCACATT against GPR182,inactive: -0.136
20,GAGUUGCUAGUAAAGCGAATT against MCCC1,inactive: 0.298
21,GGUGGAUCAAUGAUACAGATT against DPP10,inactive: -0.0478
22,GCUAAGUACAAGGACAGUATT against STK31,inactive: 0.699

row,Sequence,median seed-adjusted z-score
1,GAGACAAAUUUGGGCCUUATT against HSF4,inactive: 0.926
2,GGUGGAGUCGGAAAAUCUATT against NUBPL,inactive: 0.105
3,CGGAGUUCAUCAAACAGAUTT against HHAT,inactive: 0.585
4,CGGGUACAAGGAUUGGUUUTT against ROM1,inactive: 0.41
5,CCUCAGCUUUUACAGCAAATT against RAD23A,active: -1.13
6,CCGGAGAACCUGAAACUCATT against CAB39L,inactive: 0
7,CACAUUCGUCCAAAACUUATT against NEUROD6,inactive: -0.261
8,CACCCUAACACUUAACAUATT against PTPN20B,inactive: -0.62
9,GAGAAGAUGUGGACAUACATT against GRIA1,inactive: 0.927
10,CCCUCGAUGGUGUCAAGUATT against NFIL3,inactive: 0.4
11,GGCAACCGGUGACCAAAAATT against GRK5,inactive: -0.377
12,GCUCAUCUGGAUAACCUGATT against ZNF513,inactive: -0.0616
13,GGCUUUCAACAGUAGAUCATT against ZNF311,inactive: 0.196
14,CCAACUAUCAGUGACCGUATT against CYP17A1,active: -1.39
15,CCCAGGAACUGCUAACGAATT against SETMAR,inactive: 0.191
16,CAGUCACGCUGUCUAAUGATT against PPM2C,inactive: 0.518
17,GUCGAAUUCUUACGGAUAATT against FAM47B,inactive: -0.0631
18,GAUCUAAAGUGAAAGUAUUTT against GKAP1,inactive: -0.119
19,GCGAUGCUCUUGACUCCUUTT against ENPP6,inactive: -0.548
20,GGGACCAUCUGGAUUCAUATT against GPR107,inactive: 0
21,CGAAUAUGAUCCAACAAUATT against KRAS,inactive: -0.0469
22,CUAUGUCUAUCAGAAUGAATT against AKR1B10,inactive: 0

row,Sequence,median seed-adjusted z-score
1,CGAUAUUAAGUUGAACGAATT against KLHL7,inactive: -0.567
2,GCGCAACAGAUAAUCCUAUTT against HAL,inactive: 0
3,AAUUCCUAGUUGAAACUUUTT against QDPR,inactive: -0.734
4,GCAGAACAACGAGCACAGATT against CTSW,inactive: -0.342
5,AGAAAUCUUUGAUCCCACATT against E2F4,inactive: -0.395
6,CCUCUGUGGUCAGACCAUUTT against ATP5O,inactive: -0.324
7,GAACUGAAGGCGCUCCCUATT against HES3,inactive: 0.284
8,GAAUUAUGUUUAGCACCUUTT against SLC25A43,inactive: 0
9,CAAAGAGCCUUGAGGUAUUTT against RPA4,inactive: 0.132
10,GGAAGAAUUUCAGUCAGAATT against ZNF436,inactive: 0.00767
11,GCACUGCGACUGUACUCUATT against LRRC3B,inactive: 0
12,ACACUGAGCUUAUGUUUUATT against FOXD4L4,inactive: -0.0372
13,CCAUCAUCAGCGACAUGAATT against MTSS1,inactive: 0.175
14,AUCUGGACGUGGUCCGCAATT against RBM42,inactive: 0
15,CGAGAAUCCACCCAUCCUATT against NPY,inactive: -0.0606
16,GGAUCGGAAUCUAUUAAGATT against UBR1,inactive: -0.775
17,CCAUGGAGCAUUCUGCAAATT against OXCT1,inactive: 0.133
18,CACAGUGUAUAUUCCCUAUTT against SENP1,inactive: 0.625
19,GGAUAUGCCCUUGACUAUATT against HPRT1,inactive: -0.0463
20,GGAUCUUCACAUCCGAGAATT against KIF27,inactive: 0.412
21,CCUGAUUGAUUUAGAAUCATT against EPS8,inactive: 0
22,GCAUCUAAAGAGCUACAGATT against ZNF584,inactive: 0.172

row,Sequence,median seed-adjusted z-score
1,CCCUCAUCAUUGCCGUUGATT against SLC1A7,inactive: -0.781
2,GGUCAGCAGCUCUAAGCAATT against PHF19,inactive: -0.195
3,UGAAAGGACUGGAGUCCAATT against OLFM1,inactive: -0.103
4,GAAUCGCAUUUAUUAGUCATT against APPL1,inactive: 0
5,CGCAAACUCUGAAUCAACATT against MFN1,inactive: 0.21
6,CAAUGUUCAAAGUACUCAATT against DCK,inactive: 0.123
7,AACUGUACAUUGAAGCAGATT against CSTF3,inactive: 0.0879
8,GGAGUGAAGUGCAAGCAUUTT against KSR1,inactive: 0.0873
9,CGGAGGGUAUUAUAGAUAUTT against APIP,inactive: -0.0945
10,GAAACUGUUUGGUAAACGATT against BTK,inactive: -0.0648
11,CAGUGACACUAGUCUGCAATT against SIGLEC1,inactive: -0.153
12,CCAAUACCUGGGAUCCAUUTT against RUNX1,inactive: -0.0264
13,AAAAGACCGUCAACCCUUATT against A2BP1,active: 1.17
14,GACUCGACCAAAAUCACUATT against TLX1,inactive: -0.815
15,GAGCCGGUCUUCAUCGUGATT against MEX3D,inactive: -0.337
16,GCACGUCAAUGGGUUUAAUTT against GNAL,inactive: -0.178
17,CCGACGAUAUUACUAAUGATT against HSP90AA1,inactive: -0.323
18,UCUGCAACCUUGAUGAACATT against MAP1S,inactive: 0.0941
19,GGACAUCUGAGGAUACUGUTT against SHROOM2,inactive: 0.11
20,GGACUUCGUGCUAUCAAAATT against CCT6B,inactive: 0
21,CAAGGAAUCUUUAAGCAGATT against NKX2-1,inactive: 0.185
22,CUGCUACAGUGAGACCGAATT against CNKSR1,inactive: 0.217

row,Sequence,median seed-adjusted z-score
1,CGAUUACCCUGGUUGCACATT against KLF5,inactive: -0.338
2,GGAUACAAAUGACCGAUUUTT against MTHFD1L,inactive: -0.0577
3,AGAAGGACAUUGCGGCUCATT against DYNLL1,inactive: 0
4,CGUGUCAAAUAUUGGAUUATT against KLB,inactive: 0.221
5,CCCUCUUCGCUGUGAAUGATT against RHCG,inactive: 0.375
6,CCCUCACUUUUCUAGAAUATT against HKDC1,inactive: -0.119
7,CAACAAUCCUAUAAUUCCATT against UBE2Q2,inactive: 0.146
8,GACUCUGGGUUAUACUGGUTT against FCGR1A,inactive: 0.869
9,GAUCAUAAGUCUAAAUAAATT against PTH,inactive: 0
10,GCACAUAUGUGAGAAGAUUTT against RNF25,inactive: -0.0826
11,GGCUUAGAGGGACGAAUAATT against SHROOM4,inactive: 0.825
12,UGAGAUUUGUCGAACCAAATT against CDK9,inactive: 0.901
13,UGAGCUGGGUGAAACACGATT against KLHL17,inactive: 0.139
14,GGAAGAACAUACUUCGUUUTT against ST8SIA4,inactive: -0.309
15,GGACGGCAUUCAGUGUUUUTT against IVD,inactive: -0.147
16,CACUGUUUCCUCAAGCUUATT against ZNF121,inactive: 0.0687
17,AAGUGUGCCUGAAUACUAUTT against KHDRBS2,inactive: -0.335
18,GGGUCUUCCUGGUUCUAUUTT against ECM2,inactive: 0.179
19,GAUAUUGAGCGGUUACAAATT against ATP7B,inactive: 0.0947
20,CAAAGGGCUAAGUUCUAAATT against TBC1D5,inactive: 0.38

# Copied from the list.
# median seed-adjusted z-score, CAACAAUCCUAUAAUUCCATT against UBE2Q2 is entered as inactive: 0.146
# median seed-adjusted z-score, AGAAGGACAUUGCGGCUCATT against DYNLL1 is entered as inactive: 0
# median seed-adjusted z-score, GGGUCUUCCUGGUUCUAUUTT against ECM2 is entered as inactive: 0.179
# median seed-adjusted z-score, GCACAUAUGUGAGAAGAUUTT against RNF25 is entered as inactive: -0.0826
# median seed-adjusted z-score, UGAGAUUUGUCGAACCAAATT against CDK9 is entered as inactive: 0.901
# median seed-adjusted z-score, AAGUGUGCCUGAAUACUAUTT against KHDRBS2 is entered as inactive: -0.335
# median seed-adjusted z-score, CCCUCACUUUUCUAGAAUATT against HKDC1 is entered as inactive: -0.119
